US20120052070A1
Results are given in words; binding and its absence hold for the method and conditions named. Some results given as binding are weak or reduced against the parent protein; the word gives no strength.

Amino acid sequences for entries named in this document (tags omitted). Residues count along the entry.
UniProt O75581, residues 20-1370: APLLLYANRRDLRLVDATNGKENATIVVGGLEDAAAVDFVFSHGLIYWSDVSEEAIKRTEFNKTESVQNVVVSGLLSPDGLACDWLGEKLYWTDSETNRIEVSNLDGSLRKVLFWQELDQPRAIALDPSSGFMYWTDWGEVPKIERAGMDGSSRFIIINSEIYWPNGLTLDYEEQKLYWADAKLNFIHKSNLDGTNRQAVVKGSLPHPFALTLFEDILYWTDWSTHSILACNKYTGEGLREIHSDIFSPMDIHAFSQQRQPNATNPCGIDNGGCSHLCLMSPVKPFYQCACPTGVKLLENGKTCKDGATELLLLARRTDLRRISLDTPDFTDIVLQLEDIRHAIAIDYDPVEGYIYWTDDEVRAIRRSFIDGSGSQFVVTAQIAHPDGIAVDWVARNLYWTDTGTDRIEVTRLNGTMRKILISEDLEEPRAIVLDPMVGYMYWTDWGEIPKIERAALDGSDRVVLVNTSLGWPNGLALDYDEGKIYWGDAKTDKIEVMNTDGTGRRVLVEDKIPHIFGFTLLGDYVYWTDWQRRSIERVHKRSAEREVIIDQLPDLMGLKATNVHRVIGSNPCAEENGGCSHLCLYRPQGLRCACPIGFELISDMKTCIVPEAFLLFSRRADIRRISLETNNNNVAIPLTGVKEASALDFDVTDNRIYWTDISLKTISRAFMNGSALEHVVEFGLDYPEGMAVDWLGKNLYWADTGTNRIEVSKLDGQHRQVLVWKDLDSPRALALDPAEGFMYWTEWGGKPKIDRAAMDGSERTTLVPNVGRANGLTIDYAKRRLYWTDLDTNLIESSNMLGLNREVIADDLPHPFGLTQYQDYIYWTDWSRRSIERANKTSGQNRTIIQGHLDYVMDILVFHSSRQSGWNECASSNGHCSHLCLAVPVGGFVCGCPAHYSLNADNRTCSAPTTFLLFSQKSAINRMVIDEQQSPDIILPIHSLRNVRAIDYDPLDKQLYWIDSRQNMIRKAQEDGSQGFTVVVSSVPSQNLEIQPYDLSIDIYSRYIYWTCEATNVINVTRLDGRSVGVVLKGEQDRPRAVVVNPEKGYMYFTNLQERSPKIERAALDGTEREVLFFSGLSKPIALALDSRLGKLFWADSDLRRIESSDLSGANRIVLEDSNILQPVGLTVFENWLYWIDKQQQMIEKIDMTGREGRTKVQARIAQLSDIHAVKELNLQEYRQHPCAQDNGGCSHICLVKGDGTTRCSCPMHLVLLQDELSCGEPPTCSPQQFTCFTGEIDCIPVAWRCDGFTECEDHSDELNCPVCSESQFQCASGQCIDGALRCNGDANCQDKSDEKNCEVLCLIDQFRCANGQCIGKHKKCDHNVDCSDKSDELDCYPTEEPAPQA

Molecular target: recombinant LRP6 (R&D Systems Cat#1505-LR) (UniProt O75581)
Experiment: ELISA on plates coated with 1 µg/ml recombinant LRP6; bound DKK1 detected with anti-DKK1 antibody AF1096

B1: recombinant human DKK1 (ligand)
chain: TLNSVLNSNAIKNLPPPLGGAAGHPGSAVSAAPGILYPGGNKYQTIDNYQPYPCAEDEECGTDEYCASPTRGGDAGVQICLACRKRRKRCMRHAMCCPGNYCKNGICVSSDQNHFRGEIEETITESFGNDHSTLDGYSRRTTLSSKMYHTKGQEGSVCLRSSDCASGLCCARHFWSKICKPVLKEGQVCTKHRRKGSHGLEIFQRCYCGEGLSCRIQKDHHQASNSSRLHTCQRH
With B1 as the binder, how does the binding read?
The binding was “binds”.
